Results deposited as PubChem BioAssay AID504786 (Drosophila RNAi Screening Center, 2011).
In all, the deposit lists about 21,000 reagents; shown is an unselected part of those with a known target gene and a result. 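Primary screen; positive scores mean lost reporter signal, so the sign may be inverted from the usual convention.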 Reagents against one gene are numbered here.

Purpose: 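Knock-downs reducing HIF reporter induction by the iron chelator DFO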 (primary screen)
Cell system: Drosophila S2 cells with a stable HIF luciferase reporter
Reagents: long dsRNA against Drosophila genes, about 0.2 µg dsRNA per well of a 384-well plate
Duration: three days of knock-down, then 20 h of DFO before reading
Treatment: desferrioxamine (DFO) at 100 µM, an iron chelator that mimics hypoxia, for 20 h
Read-out: 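Firefly luciferase driven by the mouse ldh-a hypoxia-response element, measured after 20 h of 100 µM DFO; z-scores per plate, higher means more signal lost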
Scale: z-score: higher = stronger loss of HIF reporter signal

| Target gene | reagent no. | z-score, replicate 1 | z-score, replicate 2 |
| --- | --- | --- | --- |
| Tbcc (GeneID 319048) | 1 | 0.4 | -0.1 |
| Tasp1 (GeneID 39757) | 1 | -0.3 | -0.5 |
| t (GeneID 31863) | 1 | -0.3 | -0.5 |
| Fcp3C (GeneID 31294) | 1 | -0.3 | 0 |
| CG14421 (GeneID 31285) | 1 | -0.2 | 0.1 |
| CG7568 (GeneID 43482) | 1 | -0.3 | -0.4 |
| Strn-Mlck (GeneID 36753) | 1 | -0.2 | -0.4 |
| Strn-Mlck (GeneID 36753) | 2 | -1.4 | -0.3 |
| Strn-Mlck (GeneID 36753) | 3 | -0.3 | -0.1 |
| Dref (GeneID 34328) | 1 | 1.9 | 0.9 |
| CG42272 (GeneID 318020) | 1 | -0.4 | -0.1 |
| GstD8 (GeneID 48341) | 1 | 0 | 0.1 |
| VhaM9.7-d (GeneID 42041) | 1 | -0.2 | 1 |
| Apc (GeneID 44642) | 1 | 0.1 | 0.2 |
| CG9164 (GeneID 32467) | 1 | 3.2 | 3.7 |
| CG9164 (GeneID 32467) | 2 | -0.3 | -0.6 |
| GstO1 (GeneID 38975) | 1 | -0.2 | -0.3 |
| MED10 (GeneID 39777) | 1 | 0.2 | 0.6 |
| CG31064 (GeneID 43277) | 1 | 0.2 | 0.7 |
| CG31064 (GeneID 43277) | 2 | -0.2 | -0.1 |
| CG31064 (GeneID 43277) | 3 | -0.5 | 0.3 |
| CG31064 (GeneID 43277) | 4 | -0.3 | -0.5 |
| Cpr49Af (GeneID 36352) | 1 | -0.3 | -0.2 |
| bark (GeneID 33604) | 1 | -0.3 | -0.1 |
| Creld (GeneID 33166) | 1 | -0.3 | -0.5 |
| CG1146 (GeneID 38313) | 1 | -0.2 | -0.3 |
| CG13712 (GeneID 38574) | 1 | -0.5 | -0.4 |
| CG14262 (GeneID 43286) | 1 | -0.3 | -0.4 |
| snf (GeneID 31442) | 1 | 0.4 | 0.8 |
| tut (GeneID 317996) | 1 | -0.1 | 0.6 |
| tbrd-3 (GeneID 246604) | 1 | -0.4 | -0.5 |
| mRpL3 (GeneID 32523) | 1 | 1.6 | 0.4 |
| CG3420 (GeneID 35585) | 1 | -0.2 | 2.2 |
| CG9626 (GeneID 40979) | 1 | -0.3 | -0.5 |

5 entries from above, limited to “z-score, replicate 1”.
CG42272 (GeneID 318020)	-0.4
GstD8 (GeneID 48341)	0
VhaM9.7-d (GeneID 42041)	-0.2
Apc (GeneID 44642)	0.1
CG9164 (GeneID 32467) #1	3.2
